According to US20240002542A1 (SYNTHEKINE, published 2024):
Results are given in words; binding and its absence hold for the method and conditions named. Some entries that bind do so weakly or less than the wild type.

T1: hIL27Ra-his (Origene, Catalog #TP307012) (human, UniProt Q6UWB1 33-516, limits assumed)
T1 construct: Bought his-tagged cytokine receptor used as SPR analyte; also called human IL27 receptor subunit alpha; not shown: his tag
T1 sequence: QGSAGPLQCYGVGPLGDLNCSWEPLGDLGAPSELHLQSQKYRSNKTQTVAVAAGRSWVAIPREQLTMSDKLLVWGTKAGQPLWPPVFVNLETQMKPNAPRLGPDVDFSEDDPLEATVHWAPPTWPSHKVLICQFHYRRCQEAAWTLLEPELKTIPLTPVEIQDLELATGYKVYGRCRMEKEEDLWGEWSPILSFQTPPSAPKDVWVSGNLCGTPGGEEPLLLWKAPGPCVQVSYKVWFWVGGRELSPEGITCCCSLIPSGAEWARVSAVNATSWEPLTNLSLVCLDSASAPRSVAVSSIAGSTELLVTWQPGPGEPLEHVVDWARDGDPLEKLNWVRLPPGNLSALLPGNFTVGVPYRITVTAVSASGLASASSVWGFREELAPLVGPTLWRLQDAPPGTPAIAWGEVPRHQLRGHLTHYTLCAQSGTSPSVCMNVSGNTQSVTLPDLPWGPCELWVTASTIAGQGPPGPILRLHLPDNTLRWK

B1: hIL27Ra_VHH15 (VHH)
VHH: QVQLQESGGGSVQAGGSLRLSCVASGYVSCDYFLPSWYRQAPGKEREFVSIIDGTGSTSYAASVKGRFTASQDKGKNIAYLQMNTLKPEDTAMYYCKASCVRGRAISEYWGQGTQVTVSS
B2: hIL27Ra_VHH6 (VHH)
VHH: QVQLQESGGGLVQPGGSLRLSCAASGFSFSSYAMKWVRQAPGKGLEWVSTISSGGSSTNYADSVKGRFTISRDNAKNTLYLQLNSLKIEDTAMYYCAKAIVPTGATMERGQGTQVTVSS
B3: hIL27Ra_VHH9 (VHH)
VHH: QVQLQESGGGSVQSGGSLRLSCAASGFTYSTSNSWMAWFRQAPGKEREGVAAIYTVGGSIFYADSVRGRFTISQDATKNMFYLQMNTLKPEDTAMYYCAAASGRLRGKWFWPYEYNYWGQGTQVTVSS
B4: hIL27Ra_VHH4 (VHH)
VHH: QVQLQESGGGLVQPGESLRLSCTASGFTFSNYAMSWVRQAPGKGLEWVSGINVAYGITSYADSVKGRFTISRDNTKNTLYLQLNSLKTEDTAIYYCVKHSGTTIPRGFISYTKRGQGTQVTVSS
B5: hIL27Ra_VHH1 (VHH)
VHH: QVQLQESGGGLVQPGGSLRLSCAASGFTFSSYPMSWVRQAPGKGLEWISTISAGGDTTLYADSVKGRFTSSRDNAKNTLYLQLNSLKTEDAAIYYCAKRIDCNSGYCYRRNYWGQGTQVTVSS
B6: hIL27Ra_VHH19 (VHH)
VHH: QVQLQESGGGSVQAGGSLRLSCRASGSTYSNYCLGWFRQITGKEREGVAVINWVGGMLYFADSVKGRFTVSQDQAKNTVYLQMNSLKPEDTAMYYCAAESVSSFSCGGWLTRPDRVPYWGQGTQVTVSS
B7: hIL27Ra_VHH21 (VHH)
VHH: QVQLQESGGGLVQPGGSLRLSCAASGFTFSLSSMSWVRQAPGKGLEWVSAISSGGASTYYTDSVKGRFTISRDNAKNMLYLQLNSLKTEDTAMYYCAKGGSGYGDASRMTSPGSQGTQVTVSS

Molecular target: T1, hIL27Ra-his (Origene, Catalog #TP307012)
Experiment: ELISA

binding, binds:
B1
B2
B3
B4
B5
B6
B7
